# Measurements as given in patent US9061984B2 (University of Louisville Research Foundation, Inc., priority 2008, dated 2015).
# Columns and labels:
# [1] = Toxicity to peritoneal macrophages (Trypan Blue count); type: cell-based; settings: BALB/C, mouse; Table 8b; read-out: Cytotoxicity Macrophages IC50
# Procedure: Peritoneal macrophages were prepared as follows. Non-inflammatory macrophages (10^6) were collected from each BALB/C mouse. The cells adhered at 37° C. after 2 h under 5% CO2 in a CO2 incubator. The plates were then rinsed two to three times with 0.5 mL of RPMI+buffer MOPS without fetal calf serum to eliminate non-adhering cells. The supernatant on the plates was replaced by fresh medium (RPMI+glutamine+FCS+antibiotics), 0.5 mL of medium per well. To determine the toxicity of the compounds to macrophages, dilutions of compounds were added on a part of the macrophages prepared above. […] The medium was then removed and 1 μL of sterile Trypan Blue was added. Cover glasses N° 1 were left where cells were plated and then the number of macrophages in a microscope was determined with a haemocytometer. All experiments were performed in triplicate.
# [2] = system: axenic amastigotes of L. amazonensis (strain MHOM/BR/76/LTB-012); assay: microbe, parasite or virus in culture; settings: Leishmania amazonensis, read-out: IC50 Cytotoxicity Against Amastigotes
structure (smiles),measurement,setting,value
COc1cc(/C=N\Nc2ncnc3sc4c(c23)CCCC4)ccc1O [II-15],IC50 at 48 h,[1],8.5 µM
same,IC50,[2],31.4 µM
